# Measured values as given in PubChem BioAssay (EPA / NIEHS).
# Chains of the proteins cited; added tags and fusions are not shown.
# UniProt P04637, whole entry, looked up: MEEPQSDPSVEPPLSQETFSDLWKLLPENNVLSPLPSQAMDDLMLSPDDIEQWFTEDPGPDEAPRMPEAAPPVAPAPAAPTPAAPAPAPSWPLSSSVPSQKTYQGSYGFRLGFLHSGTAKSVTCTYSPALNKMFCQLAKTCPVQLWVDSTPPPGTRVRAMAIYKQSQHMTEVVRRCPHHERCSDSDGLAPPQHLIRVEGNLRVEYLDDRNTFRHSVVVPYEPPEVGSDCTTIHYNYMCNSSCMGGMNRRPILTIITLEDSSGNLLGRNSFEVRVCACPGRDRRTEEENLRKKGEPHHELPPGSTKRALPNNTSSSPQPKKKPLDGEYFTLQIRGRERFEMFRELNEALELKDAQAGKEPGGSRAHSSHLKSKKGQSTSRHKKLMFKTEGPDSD
# Inconclusive means that the source gave no clear call. Such entries were picked first, then a sample of the others. Potencies of inconclusive entries are doubtful fits and often do not repeat. Activity calls are given as the source filed them. How the source made its calls: active means hit-call score of the fitted dose curve at least 0.9, where 1 is the maximum; inconclusive means response in the unintended direction; inactive means score below 0.9. *1 amine or outer side, *2 acyl side, *3 side chain or, on linkers, in order; H or OH if unused. Where a SMILES comes first, the peptide text is derived from it. Bridges are numbered along the chain shown (N, C = ends). [ ]: non-standard residue; d: D form. The star is where a group is joined. X1 = NC1=N[C@@H]([C@H](N[*:1])C(=O)[*:2])C[C@H](O)N1; ΔAla(Z-3-ureido) = NC(=O)N/C=C(\N)C(=O)O; β3hOrn = NCCC[C@H](N)CC(=O)*; Dap = NC[C@H](N)C(=O)O
# Experiments:
# [1] = TOX21_p53_BLA_p3_viability: Viability Assessment in the Tox21 HCT-116 p53 Agonism Beta-lactamase Assay, Phase 3 (AID 2283593);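 further: cells exposed to compound for 16 h before reading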
# In short: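 Cellular ATP was quantified by CellTiter-Glo luminescence, read after 30 min at room temperature. Beforehand, HCT116 cells (4000/well) received compound 5 h post-seeding, 217-fold diluted from DMSO, then incubated 16 h at 37C.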
# [2] = TOX21_p53_BLA_p4_viability: Viability Assessment in the Tox21 HCT-116 p53 Agonism Beta-lactamase Assay, Phase 4 (AID 2283597);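 further: hits lower the luminescence signal meaning cytotoxicity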
# In short: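 HCT-116 p53-bla cells, 4000/well, dosed after 5 h attachment and incubated 16 h at 37 °C, 5% CO2. Viability from CellTiter-Glo ATP luminescence after 30 min at room temperature, taken after the beta-lactamase read; loss of signal indicates cytotoxicity.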
# [3] = TOX21_p53_BLA_p5_viability: Viability Assessment in the Tox21 HCT-116 p53 Agonism Beta-lactamase Assay, Phase 5 (AID 2283600)
# In short: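 HCT-116 p53 beta-lactamase reporter cells, 4000/well, were exposed to compound (pin transfer, 217-fold dilution) for 16 hours at 37C. Cellular ATP was read by CellTiter-Glo luminescence after 30 min at room temperature.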
# [4] = molecular target: Cellular tumor antigen p53 (Homo sapiens) (UniProt P04637); assay: TOX21_p53_BLA_p4_ratio: Tox21 HCT-116 p53 Agonism Beta-lactamase Assay, Ratio, Phase 4 (AID 2283601)
# In short: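 Signal is the blue/green (460nm/530nm) ratio of cleaved versus uncleaved CCF4-AM substrate, read after 2 h substrate loading. Cells were HCT116 carrying the p53-responsive beta-lactamase reporter, dosed 16 h at 37C, 5% CO2; CellTiter-Glo measured in parallel.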
# [5] = molecular target: Cellular tumor antigen p53 (Homo sapiens) (UniProt P04637); assay: TOX21_p53_BLA_p5_ratio: Tox21 HCT-116 p53 Agonism Beta-lactamase Assay, Ratio, Phase 5 (AID 2283599)
# In short: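 Beta-lactamase reporter ratio (blue 460 nm over green 530 nm, 405 nm excitation) after 2 h CCF4-AM loading, in HCT-116 cells exposed 16 h at 37 C to compounds pinned at 217-fold dilution. Increases relative to DMSO baseline scored.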
structure (smiles),measurement,setting,value
OCCN1CCN(CCO)CC1,AC50,[1],inconclusive: 47.3 µM
same,AC50,[2],inconclusive: 47.3 µM
same,outcome,[3],inactive
CCC(=O)O[C@H]1CC[C@H]2[C@@H]3CCc4cc(O)ccc4[C@H]3CC[C@]12C,AC50,[1],inconclusive: 23 µM
same,AC50,[2],active: 37.2 µM
same,outcome,[3],inactive
same,outcome,[4],inactive
O=C(O)CCCCCC(=O)O,outcome,[1],inactive
same,AC50,[5],inconclusive: 78.6 µM
same,outcome,[3],inactive
O=C(O)c1cc(O)c2c(c1)[C@H]([C@H]1c3cc(C(=O)O)cc(O)c3C(=O)c3c(O[C@@H]4O[C@H](CO)[C@@H](O)[C@H](O)[C@H]4O)cccc31)c1cccc(O[C@@H]3O[C@H](CO)[C@@H](O)[C@H](O)[C@H]3O)c1C2=O,AC50,[1],inconclusive: 23 µM
same,AC50,[2],inconclusive: 23 µM
same,outcome,[4],inactive
CCOC(=O)CC(=O)c1cc(F)c(Cl)nc1Cl,AC50,[1],inconclusive: 47 µM
same,AC50,[5],inconclusive: 47 µM
O=C(O)c1ccccc1C(=O)Nc1ccc(S(=O)(=O)Nc2nccs2)cc1,AC50,[1],inconclusive: 4.57 µM
same,AC50,[2],inconclusive: 23 µM
same,AC50,[3],inconclusive: 13.4 µM
CC(=O)O[C@@H]1C(=O)O[C@@H]2[C@H]1OC(=O)[C@@H]2OC(C)=O,AC50,[1],inconclusive: 23 µM
same,AC50,[5],active: 36.7 µM
CC(C)(C(=O)O)c1ccc(C(O)CCCN2CCC(C(O)(c3ccccc3)c3ccccc3)CC2)cc1 (stereo unspecified),outcome,[1],inactive
same,AC50,[5],inconclusive: 23 µM
same,outcome,[3],inactive
CC(=O)N[C@H]1[C@H]([C@H](O)[C@H](O)CO)OC(C(=O)O)=C[C@@H]1N=C(N)N,AC50,[1],inconclusive: 23 µM
same,AC50,[5],inconclusive: 23 µM
same,outcome,[3],inactive
CC(C)(c1ccc(Oc2ccc3c(c2)C(=O)OC3=O)cc1)c1ccc(Oc2ccc3c(c2)C(=O)OC3=O)cc1,outcome,[1],inactive
same,AC50,[2],inconclusive: 80.4 µM
same,AC50,[3],inconclusive: 45.9 µM
same,AC50,[4],inconclusive: 45.9 µM
O=Cc1ccc(Cl)c(Cl)c1,AC50,[1],inconclusive: 47.1 µM
same,AC50,[5],inconclusive: 47.1 µM
same,AC50,[3],inconclusive: 0.173 µM
same,AC50,[4],inconclusive: 47.1 µM
C[N+](C)(C)CCOC(=O)CCC(=O)OCC[N+](C)(C)C,AC50,[1],inconclusive: 23 µM
same,outcome,[2],inactive
same,AC50,[3],inconclusive: 23 µM
same,AC50,[4],inconclusive: 23 µM
CCC(=O)c1ccc(O)cc1,outcome,[1],inactive
same,outcome,[2],inactive
same,AC50,[4],inconclusive: 23 µM
CN1C(=O)CC(c2ccccc2)C1=O (stereo unspecified),AC50,[1],inconclusive: 0.17 µM
same,AC50,[2],inconclusive: 23 µM
same,outcome,[3],inactive
Cc1c(C(C)C)c(=O)n(-c2ccccc2)n1C,AC50,[1],inconclusive: 0.0353 µM
same,outcome,[5],inactive
same,AC50,[4],inconclusive: 23 µM
Cc1ccccc1OCC1CO1 (stereo unspecified),AC50,[1],inconclusive: 46.3 µM
same,AC50,[5],inconclusive: 46.3 µM
CC(S)C(=O)NCC(=O)O (stereo unspecified),outcome,[1],inactive
same,outcome,[5],inactive
same,outcome,[3],inactive
same,AC50,[4],inconclusive: 5.99e-05 µM
CCOC(=O)COc1ccc2c(C)c(CCN(CC)CC)c(=O)oc2c1,AC50,[1],inconclusive: 23 µM
same,AC50,[2],inconclusive: 0.193 µM
same,outcome,[4],inactive
NC(=O)c1cc[n+](CC2=C(C(=O)O)N3C(=O)[C@@H](NC(=O)[C@@H](c4ccccc4)S(=O)(=O)[O-])[C@H]3SC2)cc1,AC50,[1],inconclusive: 18.4 µM
same,outcome,[5],inactive
same,AC50,[3],inconclusive: 10.3 µM
same,outcome,[4],inactive
O=C(Nc1ccc(C(=O)O)c(O)c1)c1ccccc1,AC50,[1],inconclusive: 23 µM
same,outcome,[5],inactive
NCCC[C@H](N)CC(=O)N[C@H]1CNC(=O)[C@H]([C@H]2C[C@H](O)NC(N)=N2)NC(=O)/C(=C/NC(N)=O)NC(=O)[C@H](CO)NC(=O)[C@H](CO)NC1=O (β3hOrn-[Dap]SS[ΔAla(Z-3-ureido)][X1]; lactam 1-C),AC50,[1],inconclusive: 5.71e-05 µM
same,AC50,[5],inconclusive: 23 µM
same,AC50,[3],inconclusive: 23 µM
CCOc1cc(OCC)c(C(C)=O)cc1OCC,AC50,[1],inconclusive: 45.4 µM
same,AC50,[5],inconclusive: 45.4 µM
CC(C(=O)O)c1ccc2c(c1)[nH]c1ccc(Cl)cc12 (stereo unspecified),AC50,[1],inconclusive: 23 µM
same,AC50,[2],inconclusive: 0.00867 µM
same,outcome,[3],inactive
CC[N+](CC)(CC)CCOc1cccc(OCC[N+](CC)(CC)CC)c1OCC[N+](CC)(CC)CC,AC50,[1],inconclusive: 23 µM
same,outcome,[2],inactive
same,AC50,[3],inconclusive: 23 µM
Nc1ccc(S(=O)(=O)Nc2ccnn2-c2ccccc2)cc1,AC50,[1],inconclusive: 10.3 µM
same,AC50,[5],inconclusive: 10.3 µM
same,AC50,[3],inconclusive: 10.3 µM
CC(C)Cn1cnc2c(N)nc3ccccc3c21,AC50,[1],inconclusive: 23 µM
same,AC50,[2],inconclusive: 43.4 µM
same,AC50,[4],inconclusive: 6.28e-05 µM
CC1(N)CCC(C(C)(C)N)CC1 (stereo unspecified),AC50,[1],inconclusive: 46.1 µM
same,AC50,[2],inconclusive: 0.107 µM
same,outcome,[3],inactive
same,AC50,[4],inconclusive: 89.1 µM
CCCCN(CCCC)CC(O)c1cc(Cl)cc2c1-c1ccc(Cl)cc1/C2=C/c1ccc(Cl)cc1 (stereo unspecified),outcome,[1],inactive
same,AC50,[5],inconclusive: 23 µM
same,outcome,[3],inactive

# A run of entries of the results above:
structure (smiles),measurement,setting,value
CC(C)(c1ccc(Oc2ccc3c(c2)C(=O)OC3=O)cc1)c1ccc(Oc2ccc3c(c2)C(=O)OC3=O)cc1,AC50,[3],inconclusive: 45.9 µM
same,AC50,[4],inconclusive: 45.9 µM
O=Cc1ccc(Cl)c(Cl)c1,AC50,[1],inconclusive: 47.1 µM
same,AC50,[5],inconclusive: 47.1 µM
same,AC50,[3],inconclusive: 0.173 µM
same,AC50,[4],inconclusive: 47.1 µM
C[N+](C)(C)CCOC(=O)CCC(=O)OCC[N+](C)(C)C,AC50,[1],inconclusive: 23 µM
same,outcome,[2],inactive
same,AC50,[3],inconclusive: 23 µM
same,AC50,[4],inconclusive: 23 µM
CCC(=O)c1ccc(O)cc1,outcome,[1],inactive
same,outcome,[2],inactive
same,AC50,[4],inconclusive: 23 µM
CN1C(=O)CC(c2ccccc2)C1=O (stereo unspecified),AC50,[1],inconclusive: 0.17 µM
same,AC50,[2],inconclusive: 23 µM
same,outcome,[3],inactive
